Results as given in PMC9331302.

System: PnWRKY9 (Panax notoginseng)
Experiment: EMSA
Details: LightShift Chemiluminescence EMSA kit (Pierce) standard procedure; pH and temperature not stated; recombinant protein; protein details: N-terminal His-tag (pET32a)

GAGTCTAAGGAGATGGTTGGATAATTGGGTGACCGATCGGAACTTGTTG (double strand) [PPnDEFL1 mutant W-box probe]
binding result: no binding

For at least one entry, the source does not settle the construct or the ends of the probe. No signal at the amounts used counts as a negative.
